Laboratory results: PubChem BioAssay AID1508597 (Cure First, 2020)

- Purpose: 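Genes whose silencing sensitises or protects ovarian cancer cells against rucaparib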 (primary screen)
- Cell system: human ovarian carcinoma lines grown from tumours: OCI-P5x (papillary serous) and OCI-C5x (clear cell)
- Reagents: siRNA pool against human genes, 1.25 pmol siRNA per well
- Duration: 72 h or 96 h, depending on the cell culture
- Challenge: rucaparib 20 µM (about IC30) or vehicle, present until read-out
- Measured: 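Luminescent ATP-based viability assay read 72 or 96 h after transfection, depending on culture, given as normalised percent viability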
- Reading the numbers: viability, normalised: higher = more viable cells remaining
- Active means: 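Active when normalised viability falls below 80 percent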
- Calls: active = viability under 80%; inactive = viability 80% or more
Here is one part, drawn at random, of about 2,100 deposited reagents. 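Calls flag viability under 80% in either arm, not effects specific to rucaparib; the reference for percent is not stated.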 A number with no mark means an inactive call. A reagent listed more than once was tested more than once; the source does not tell the runs apart. The record does not give: the 100% reference.

DHX9 (DExH-box helicase 9), rucaparib or vehicle Rucaparib, cell line OCI-C5x (clear cell), technical replicate 1 — viability, normalised (%) = 47.7 (active)
DHX9 (DExH-box helicase 9), rucaparib or vehicle Rucaparib, cell line OCI-C5x (clear cell), technical replicate 1 — viability, normalised (%) = 87.3
DHX9 (DExH-box helicase 9), rucaparib or vehicle Rucaparib, cell line OCI-C5x (clear cell), technical replicate 2 — viability, normalised (%) = 43 (active)
DHX9 (DExH-box helicase 9), rucaparib or vehicle Rucaparib, cell line OCI-C5x (clear cell), technical replicate 2 — viability, normalised (%) = 68.4 (active)
DHX9 (DExH-box helicase 9), rucaparib or vehicle Rucaparib, cell line OCI-C5x (clear cell), technical replicate 3 — viability, normalised (%) = 60.8 (active)
DHX9 (DExH-box helicase 9), rucaparib or vehicle Rucaparib, cell line OCI-C5x (clear cell), technical replicate 3 — viability, normalised (%) = 40.1 (active)
DHX9 (DExH-box helicase 9), rucaparib or vehicle Rucaparib, cell line OCI-P5x (serous), technical replicate 1 — viability, normalised (%) = 59 (active)
DHX9 (DExH-box helicase 9), rucaparib or vehicle Rucaparib, cell line OCI-P5x (serous), technical replicate 1 — viability, normalised (%) = 66.5 (active)
DHX9 (DExH-box helicase 9), rucaparib or vehicle Rucaparib, cell line OCI-P5x (serous), technical replicate 2 — viability, normalised (%) = 90.9
DHX9 (DExH-box helicase 9), rucaparib or vehicle Rucaparib, cell line OCI-P5x (serous), technical replicate 2 — viability, normalised (%) = 54.2 (active)
DHX9 (DExH-box helicase 9), rucaparib or vehicle Rucaparib, cell line OCI-P5x (serous), technical replicate 3 — viability, normalised (%) = 81.2
DHX9 (DExH-box helicase 9), rucaparib or vehicle Rucaparib, cell line OCI-P5x (serous), technical replicate 3 — viability, normalised (%) = 51.8 (active)
DHX9 (DExH-box helicase 9), rucaparib or vehicle Vehicle, cell line OCI-C5x (clear cell), technical replicate 1 — viability, normalised (%) = 29.8 (active)
DHX9 (DExH-box helicase 9), rucaparib or vehicle Vehicle, cell line OCI-C5x (clear cell), technical replicate 1 — viability, normalised (%) = 42.1 (active)
DHX9 (DExH-box helicase 9), rucaparib or vehicle Vehicle, cell line OCI-C5x (clear cell), technical replicate 2 — viability, normalised (%) = 36.2 (active)
DHX9 (DExH-box helicase 9), rucaparib or vehicle Vehicle, cell line OCI-C5x (clear cell), technical replicate 2 — viability, normalised (%) = 69.7 (active)
DHX9 (DExH-box helicase 9), rucaparib or vehicle Vehicle, cell line OCI-C5x (clear cell), technical replicate 3 — viability, normalised (%) = 29.3 (active)
DHX9 (DExH-box helicase 9), rucaparib or vehicle Vehicle, cell line OCI-C5x (clear cell), technical replicate 3 — viability, normalised (%) = 57.2 (active)
DHX9 (DExH-box helicase 9), rucaparib or vehicle Vehicle, cell line OCI-P5x (serous), technical replicate 1 — viability, normalised (%) = 50.4 (active)
DHX9 (DExH-box helicase 9), rucaparib or vehicle Vehicle, cell line OCI-P5x (serous), technical replicate 1 — viability, normalised (%) = 40 (active)
DHX9 (DExH-box helicase 9), rucaparib or vehicle Vehicle, cell line OCI-P5x (serous), technical replicate 2 — viability, normalised (%) = 74.3 (active)
DHX9 (DExH-box helicase 9), rucaparib or vehicle Vehicle, cell line OCI-P5x (serous), technical replicate 2 — viability, normalised (%) = 43.1 (active)
DHX9 (DExH-box helicase 9), rucaparib or vehicle Vehicle, cell line OCI-P5x (serous), technical replicate 3 — viability, normalised (%) = 48.9 (active)
DHX9 (DExH-box helicase 9), rucaparib or vehicle Vehicle, cell line OCI-P5x (serous), technical replicate 3 — viability, normalised (%) = 67.7 (active)
